# Test results as given in US20260325487A1 (BS BIOTECHNA SPOLKA AKCYJNA, priority 2023, published 2026).
# Like-named read-outs stand apart in the source and are kept apart here.
# Tests used:
# Format in all cases: cell-based
# SKMES-1 = test: SRB anti-proliferative assay, SKMES-1, molecular combination and nanoparticles, with combination index (Example III); conditions: Homo sapiens, SK-MES-1, read-out: Inhibition of cell proliferation (Zah.)
# Description: (§1) Cells were thawed from ampoules stored in liquid nitrogen and cultured in petri dishes in the appropriate culture medium according to Table 16, in a humidified 5% CO2 atmosphere at 37° C. Cells were passaged twice weekly using EDTA-Trypsin solution, pH 8, as a separating agent. Counted cells with a viability of at least 90% as assessed with Trypan-Blue solution were used for anti-proliferation assays.
# (§2) Twenty-four hours before the addition of the test compounds/combinations, cells were seeded into 384-well plates at 50 μL/well and a density of 10^3 cells/well, in the appropriate culture medium. […] Solutions of the compounds were diluted in the test medium—RPMI-1640 and Opti-MEM in a 1:1 ratio, and the medium was supplemented with 2 mM glutamine and 5% fetal bovine serum FBS.
# (§3) After 72 h, colourimetric assessment of cell growth was performed by SRB. […] Unbound dye was removed by washing the plates (4×) in 1% (v/v) acetic acid, and protein-bound dye was extracted with 10 mM unbuffered Tris base and the optical density (A=540 nm) was determined in a BioTek Synergy H4 Hybrid computer microplate reader (BioTek Instruments USA). The entire washing/staining procedure was performed using a BioTek EL406 washing station (BioTek Instruments USA). The raw absorbance results were analysed in Microsoft Excel software using the formula:
# (§4) [formula] • Where: • % Zahlnh-inhibition of proliferation • Am—absorbance of wells without cells (medium) • Ak—absorbance of control wells (cells treated with pure culture medium) • Ap—absorbance of wells treated with compounds
# (§5) Each compound at the indicated concentrations was tested in triplicate in one experiment. Each experiment was repeated three times. Data analysis was supplemented with synergy assessment using CalcuSyn software. […] A CI value below 0.8 indicates synergism, 0.8-1.2 an additive effect, above 1.2 an antagonism.
# LN229 = test: SRB anti-proliferative assay, LN229, molecular combination and nanoparticles, with combination index (Example III); conditions: Homo sapiens
# Description: as §1, §2, §3, §4, §5
# LUDLU-1 = test: SRB anti-proliferative assay, LUDLU-1, with CalcuSyn combination index (Example 1); conditions: Homo sapiens, LUDLU-1, 72 h, read-out: Zah. (inhibition of proliferation)
# Description: as §1, with “in” for “in the”, “2,” for “16,”, “8.” for “8, as a separating agent.”, “anti-proliferative” for “anti-proliferation”
# (§6) Twenty-four hours before the addition of the test compounds/combinations, cells were seeded into 384-well plates at 50 μL/well and a density of 10^3 cells/well, in the appropriate culture medium.
# as §3, with “Solutions of the compounds were diluted in the test medium-RPMI-1640 and Opti-MEM in a 1:1 ratio, and the medium was supplemented with 2 mM glutamine and 5% fetal bovine serum FBS. After” for “After”
# as §4, §5
# SK-MEL3 = test: SRB anti-proliferative assay, SK-MEL3, with CalcuSyn combination index (Example 1); conditions: Homo sapiens, SK-MEL3, 72 h, read-out: Zah. (inhibition of proliferation)
# Description: as §1, with “in” for “in the”, “2,” for “16,”, “8.” for “8, as a separating agent.”, “anti-proliferative” for “anti-proliferation”
# as §6
# as §3, with “Solutions of the compounds were diluted in the test medium-RPMI-1640 and Opti-MEM in a 1:1 ratio, and the medium was supplemented with 2 mM glutamine and 5% fetal bovine serum FBS. After” for “After”
# as §4, §5
# SW1990 = test: SRB anti-proliferative assay, SW1990, with CalcuSyn combination index (Example 1); conditions: Homo sapiens, SW1990, 72 h, read-out: Zah. (inhibition of proliferation)
# Description: as §1, with “in” for “in the”, “2,” for “16,”, “8.” for “8, as a separating agent.”, “anti-proliferative” for “anti-proliferation”
# as §6
# as §3, with “Solutions of the compounds were diluted in the test medium-RPMI-1640 and Opti-MEM in a 1:1 ratio, and the medium was supplemented with 2 mM glutamine and 5% fetal bovine serum FBS. After” for “After”
# as §4, §5
# NCI-H1299 = test: SRB anti-proliferative assay, NCI-H1299, with CalcuSyn combination index (Example 1); conditions: Homo sapiens, NCI-H1299, 72 h, read-out: Zah. (inhibition of proliferation)
# Description: as §1, with “in” for “in the”, “2,” for “16,”, “8.” for “8, as a separating agent.”, “anti-proliferative” for “anti-proliferation”
# as §6
# as §3, with “Solutions of the compounds were diluted in the test medium-RPMI-1640 and Opti-MEM in a 1:1 ratio, and the medium was supplemented with 2 mM glutamine and 5% fetal bovine serum FBS. After” for “After”
# as §4, §5
# NCI-H1975 = test: SRB anti-proliferative assay, NCI-H1975, with CalcuSyn combination index (Example 1); conditions: Homo sapiens, NCI-H1975, 72 h, read-out: Zah. (inhibition of proliferation)
# Description: as §1, with “in” for “in the”, “2,” for “16,”, “8.” for “8, as a separating agent.”, “anti-proliferative” for “anti-proliferation”
# as §6
# as §3, with “Solutions of the compounds were diluted in the test medium-RPMI-1640 and Opti-MEM in a 1:1 ratio, and the medium was supplemented with 2 mM glutamine and 5% fetal bovine serum FBS. After” for “After”
# as §4, §5
# SK-MES-1 = test: SRB anti-proliferative assay, SK-MES-1, with CalcuSyn combination index (Example 1); conditions: Homo sapiens, SK-MES-1, 72 h, read-out: Zah. (inhibition of proliferation)
# Description: as §1, with “in” for “in the”, “2,” for “16,”, “8.” for “8, as a separating agent.”, “anti-proliferative” for “anti-proliferation”
# as §6
# as §3, with “Solutions of the compounds were diluted in the test medium-RPMI-1640 and Opti-MEM in a 1:1 ratio, and the medium was supplemented with 2 mM glutamine and 5% fetal bovine serum FBS. After” for “After”
# as §4, §5
smiles,measurement,setting,value
"CN[C@@H]1C[C@H]2O[C@@](C)([C@@H]1OC)n1c3ccccc3c3c4c(c5c6ccccc6n2c5c31)C(=O)NC4 [Staurosporine, staurosporine]",inhibition at 31.6 pM,SKMES-1,7.6%
same,inhibition at 0.0001 µM,SKMES-1,19.7%
same,inhibition at 0.0003163 µM,SKMES-1,38.4%
same,inhibition at 0.001 µM,SKMES-1,64.7%
same,inhibition at 0.0032 µM,SKMES-1,93%
same,inhibition at 0.01 µM,SKMES-1,97.6%
same,inhibition at 0.0316 µM,SKMES-1,99.4%
same,inhibition at 0.1 µM,SKMES-1,100%
same,inhibition at 0.0003163 µM,"LN229; LN-229, 72 h, read-out: Zah. (inhibition of proliferation), staurosporine 0.3163 nM, in combinations with 17AAG at ratio 5/1, 72 h",28.3%
same,inhibition at 0.001 µM,"LN229; LN-229, 72 h, read-out: Zah. (inhibition of proliferation), staurosporine 1 nM, in combinations with 17AAG at ratio 5/1, 72 h",31.9%
same,inhibition at 0.0032 µM,"LN229; LN-229, 72 h, read-out: Zah. (inhibition of proliferation), staurosporine 3.2 nM, in combinations with 17AAG at ratio 5/1, 72 h",38.3%
same,inhibition at 0.01 µM,"LN229; LN-229, 72 h, read-out: Zah. (inhibition of proliferation), staurosporine 10 nM, in combinations with 17AAG at ratio 5/1, 72 h",39.4%
same,inhibition at 0.0316 µM,"LN229; LN-229, 72 h, read-out: Zah. (inhibition of proliferation), staurosporine 31.6 nM, in combinations with 17AAG at ratio 5/1, 72 h",44.7%
same,inhibition at 0.1 µM,"LN229; LN-229, 72 h, read-out: Zah. (inhibition of proliferation), staurosporine 100 nM, in combinations with 17AAG at ratio 5/1, 72 h",56.2%
same,inhibition at 0.3163 µM,"LN229; LN-229, 72 h, read-out: Zah. (inhibition of proliferation), staurosporine 316.3 nM, in combinations with 17AAG at ratio 5/1, 72 h",48.3%
same,inhibition at 1 µM,"LN229; LN-229, 72 h, read-out: Zah. (inhibition of proliferation), staurosporine 1000 nM, in combinations with 17AAG at ratio 5/1, 72 h",91.3%
same,inhibition at 0.0003163 µM,"LN229; LN-229, read-out: Zah. (inhibition of cell proliferation), LN229, compound alone, 0.3163 nM",28.3%
same,inhibition at 0.001 µM,"LN229; LN-229, read-out: Zah. (inhibition of cell proliferation), LN229, compound alone, 1 nM",31.9%
same,inhibition at 0.0032 µM,"LN229; LN-229, read-out: Zah. (inhibition of cell proliferation), LN229, compound alone, 3.2 nM",38.3%
same,inhibition at 0.01 µM,"LN229; LN-229, read-out: Zah. (inhibition of cell proliferation), LN229, compound alone, 10 nM",39.4%
same,inhibition at 0.0316 µM,"LN229; LN-229, read-out: Zah. (inhibition of cell proliferation), LN229, compound alone, 31.6 nM",47.1%
same,inhibition at 0.1 µM,"LN229; LN-229, read-out: Zah. (inhibition of cell proliferation), LN229, compound alone, 100 nM",56.2%
same,inhibition at 0.3163 µM,"LN229; LN-229, read-out: Zah. (inhibition of cell proliferation), LN229, compound alone, 316.3 nM",55.8%
same,inhibition at 1 µM,"LN229; LN-229, read-out: Zah. (inhibition of cell proliferation), LN229, compound alone, 1000 nM",91.3%
same,inhibition at 31.1 pM,LUDLU-1,3.6%
same,inhibition at 0.0001 µM,LUDLU-1,3%
same,inhibition at 0.00031 µM,LUDLU-1,13.1%
same,inhibition at 0.001 µM,LUDLU-1,31.7%
same,inhibition at 0.0031 µM,LUDLU-1,50%
same,inhibition at 0.01 µM,LUDLU-1,53.6%
same,inhibition at 0.03 µM,LUDLU-1,68.8%
same,inhibition at 0.1 µM,LUDLU-1,84.5%
same,inhibition at 0.0003109 µM,SK-MEL3,9%
same,inhibition at 0.001 µM,SK-MEL3,9.9%
same,inhibition at 0.0031 µM,SK-MEL3,17.6%
same,inhibition at 0.01 µM,SK-MEL3,27.5%
same,inhibition at 0.0314 µM,SK-MEL3,45%
same,inhibition at 0.1 µM,SK-MEL3,57.2%
same,inhibition at 0.3155 µM,SK-MEL3,64.8%
same,inhibition at 1 µM,SK-MEL3,84.5%
same,inhibition at 31.1 pM,SW1990,10.5%
same,inhibition at 98.5 pM,SW1990,13.3%
same,inhibition at 0.0003109 µM,SW1990,18.7%
same,inhibition at 0.001 µM,SW1990,34.8%
same,inhibition at 0.0031 µM,SW1990,49.3%
same,inhibition at 0.01 µM,SW1990,64%
same,inhibition at 0.0314 µM,SW1990,70%
same,inhibition at 0.1 µM,SW1990,73.4%
same,inhibition at 31.1 pM,NCI-H1299,-0.8%
same,inhibition at 98.5 pM,NCI-H1299,2.8%
same,inhibition at 0.0003109 µM,NCI-H1299,8.4%
same,inhibition at 0.001 µM,NCI-H1299,34.5%
same,inhibition at 0.0031 µM,NCI-H1299,66.2%
same,inhibition at 0.01 µM,NCI-H1299,77.5%
same,inhibition at 0.0314 µM,NCI-H1299,83.5%
same,inhibition at 0.1 µM,NCI-H1299,86.1%
same,inhibition at 31.1 pM,NCI-H1975,-3%
same,inhibition at 98.5 pM,NCI-H1975,0.8%
same,inhibition at 0.0003109 µM,NCI-H1975,4.6%
same,inhibition at 0.001 µM,NCI-H1975,16.1%
same,inhibition at 0.0031 µM,NCI-H1975,44.2%
same,inhibition at 0.01 µM,NCI-H1975,61.6%
same,inhibition at 0.0314 µM,NCI-H1975,67.6%
same,inhibition at 0.1 µM,NCI-H1975,82.5%
same,inhibition at 31.1 pM,SK-MES-1,1.9%
same,inhibition at 0.0001 µM,SK-MES-1,-1.8%
same,inhibition at 0.00031 µM,SK-MES-1,5%
same,inhibition at 0.001 µM,SK-MES-1,27.7%
same,inhibition at 0.0031 µM,SK-MES-1,62.6%
same,inhibition at 0.01 µM,SK-MES-1,77%
same,inhibition at 0.03 µM,SK-MES-1,83.6%
same,inhibition at 0.1 µM,SK-MES-1,85.6%
